This assay deals with T1, PsaK (Chroomonas placoidea).
T1 sequence: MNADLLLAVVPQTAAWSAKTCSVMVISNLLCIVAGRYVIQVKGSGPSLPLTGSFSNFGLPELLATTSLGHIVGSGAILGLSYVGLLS
The experiment in a line: cryo-EM structure; native PSI–ACPI supercomplex isolated from C. placoidea thylakoids in 0.02% α-DDM, MES–NaOH pH 6.5; two classes: PSI–14ACPI at 2.66 Å and PSI–11ACPI (without ACPI-9/10/11) at 2.71 Å; both purified.

Results are given in words; binding and its absence hold for the method and conditions named. Binding can be weak; no strength is given.

Turning to “alloxanthin-chlorophyll a/c protein ACPI-1 (Chroomonas placoidea)”, the binding entry is given as “binds”.

On to “alloxanthin-chlorophyll a/c protein ACPI-11 (Chroomonas placoidea)”, for which the binding entry is given as “binds”.
